# Reference: PubChem BioAssay AID602364 (National Center for Advancing Translational Sciences (NCATS), 2012)
# Protein sequences, listed by entry. Tags and fused reporters are not part of them.
# UniProt P08659, whole entry, looked up: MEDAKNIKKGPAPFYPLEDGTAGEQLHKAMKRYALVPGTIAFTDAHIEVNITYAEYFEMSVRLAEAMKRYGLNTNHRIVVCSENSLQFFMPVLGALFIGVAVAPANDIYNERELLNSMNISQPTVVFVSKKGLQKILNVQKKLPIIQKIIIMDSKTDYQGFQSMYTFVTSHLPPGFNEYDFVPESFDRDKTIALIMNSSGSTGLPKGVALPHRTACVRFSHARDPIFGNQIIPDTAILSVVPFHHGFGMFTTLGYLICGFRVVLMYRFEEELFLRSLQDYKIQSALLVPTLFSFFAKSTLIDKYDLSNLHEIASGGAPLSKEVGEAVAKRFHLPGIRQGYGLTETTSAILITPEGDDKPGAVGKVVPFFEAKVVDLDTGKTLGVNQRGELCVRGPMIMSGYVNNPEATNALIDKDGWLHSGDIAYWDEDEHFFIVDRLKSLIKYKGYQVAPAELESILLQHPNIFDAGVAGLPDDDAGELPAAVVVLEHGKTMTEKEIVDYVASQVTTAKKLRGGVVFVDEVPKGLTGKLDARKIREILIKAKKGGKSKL
# Inconclusive results, whose numbers are uncertain, are shown with a selection of clear calls. Potencies of inconclusive entries are doubtful fits and often do not repeat. Calls of active or inactive are those of the source. Calls follow the shape of the dose curve; as a rule, active = well fitted inhibition curve with a large enough effect; inconclusive = small, poorly fitted or top-dose-only effect; inactive = flat fitted curve, though single readings scatter.
# Target: Luciferin 4-monooxygenase (Photinus pyralis) (UniProt P08659)
# Assay: FLuc inhibitory activity for the follow-up compounds in a biochemical assay with 1mM ATP
# Conditions: purified P. pyralis luciferase, luminescence; series mostly up to 57.5 µM; activity change, negative = inhibition: at the top concentration
# Excerpt: NCGC Assay Overview: Firefly (Photinus pyralis) luciferase is one of the most commonly used transcriptional reporters. It is considered one of the more dynamically responsive reporters - that is, responsive to changes in reporter transcription - as it requires no post-translational modifications and is enzymatically active directly after protein synthesis (Wood, 1998). With no endogenous expression in mammalian cells and without the requirement of external excitation, it offers very little background signal, thus generally providing excellent signal to background for most assays. Previous profiling work to determine the prevalence of compounds that affect FLuc enzymatic activity (PubChem AID 411) identified that ~3% of the MLSMR library (then at ~72K) inhibited FLuc. […] Of the compounds identified in this profile that inhibited FLuc, 151 compounds were selected for further analysis, in an effort to better understand their mode of inhibiting FLuc. The assay described here was to determine the activity of the compounds in a FLuc assay that contained a KM concentration of D-luciferin and a high concentration (1mM) of ATP.
# NCGC Assay Protocol Summary: Reagents: 50mM Tris acetate, pH 7.5; 10mM Mg acetate; 10uM D-luciferin (Sigma #L9504); 1mM ATP; 0.01% Tween-20; 0.05% BSA; 10nM P. pyralis luciferase (Sigma #L9506) Control compounds used were two known firefly luciferase inhibitors (3-(5-(3-chlorophenyl)-1,2,4-oxadiazol-3-yl)benzoic acid and 5-(2-fluorophenyl)-3-phenyl-1,2,4-oxadiazole), and DMSO. Three microliters containing firefly luciferase substrates in buffer (final concentrations: 50mM Tris acetate, pH 7.5, 10mM Mg acetate, 0.01% Tween-20, 0.05% BSA, 10uM D-luciferin, 1mM ATP) are dispensed into each well of a Greiner white, solid-bottom 1536-well format plate using a flying reagent dispenser (FRD). These assay plates were then treated with 23nL of compound or DMSO using a Kalypsys pin tool, which allows for delivery of a 12-point intraplate titration of each compound to the assay plate (quantitative HTS), with a final compound concentrations ranging from approximately ~60uM to 0.3nM. One microliter of firefly luciferase in […] Tris-acetate buffer was then delivered by FRD to each well for a final enzyme concentration of 10nM. Luciferase activity was then measured using a ViewLux CCD imager (PerkinElmer), with an average exposure time of 2-30 seconds (2X binning, medium/high gain).
Compound,"activity change, negative = inhibition",Potency
O=C(Nc1ccccc1C(=O)O)c1cc(S(=O)(=O)NCc2ccccc2)ccc1Cl,inactive: 0.773%,
CC(=O)Nc1cccc(C(=O)Nc2ccccc2C(=O)O)c1,,"inconclusive: 25.9 µM [inhibitor, partial curve]"
COc1ccccc1C(=O)Nc1ccc(C(=O)O)cc1,inactive: -2.29%,
Cc1c(NC(=O)c2cc(-n3cnnc3)ccc2Cl)cccc1-c1nc2ccccc2s1,,active: 2.91 µM
Cc1ccc(C(=O)Nc2ccc(C(=O)O)cc2)cc1S(=O)(=O)Nc1ccccc1,inactive: 3.68%,
CC(=O)Oc1ccc(C(=O)Nc2ccccc2C(=O)Nc2ccc(C(=O)O)cc2)cc1,,"inconclusive: 32.6 µM [inhibitor, partial curve]"
COc1ccc2nc(NC(=O)c3ccco3)sc2c1,,active: 0.183 µM
